Source: PubChem BioAssay AID743456 (Peter MacCallum Cancer Centre, 2014)

- Test: 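miRNA mimics altering how resistant colon cancer cells respond to vorinostat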 (primary screen)
- Cell system: human HCT116-VR colon cancer cells, a vorinostat-resistant HCT116 line
- Reagents: miRNA mimic
- Time to read-out: about 3 days from transfection to readout; drug present for the last 24 h
- Conditions: vorinostat at 2.5 µM final for 24 h
- Measured: 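Per-well live-cell protease fluorescence and caspase luminescence under 2.5 µM vorinostat for 24 h, scored as robust z-scores and against mock transfection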
- Direction: viability robust z-score: higher = more viable cells; caspase robust z-score: higher = more caspase activity, more apoptosis
- Call rule: 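a mimic counts as active if it lands in a lowered-viability class or a caspase-activation class; wells with too few cells without drug are left out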
The deposit covers 878 reagents; this is a random part of them. Of all reagents, 27 (3.1%) are marked active. 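27 mimics are marked active, unlike an earlier stated count of 24; the viability threshold is described inconsistently.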 Not all columns of the deposit are shown. No sequences are given here. The record does not give: the amount of reagent.

microRNA | viability robust z-score | caspase robust z-score | viability hit class | caspase hit class | activity call
hsa-miR-302a | 0.77 | 1.38 | no change | no change | inactive
hsa-miR-412 | -0.26 | -0.25 | no change | no change | inactive
hsa-miR-1468 | 0.34 | -0.82 | no change | no change | inactive
hsa-miR-891b | -2.86 | 2.33 | no change | no change | inactive
hsa-miR-222* | -1.86 | 1.27 | no change | no change | inactive
hsa-miR-548j | -0.44 | 0.51 | no change | no change | inactive
hsa-miR-512-3p | 1.44 | 3.93 | no change | no change | inactive
hsa-miR-145 | -0.82 | -1.17 | no change | no change | inactive
hsa-miR-489 | -2.1 | 2.38 | no change | no change | inactive
hsa-miR-616 | -0.94 | 0.24 | no change | no change | inactive
hsa-miR-501-5p | -1.56 | -0.57 | no change | no change | inactive
hsa-miR-647 | -0.4 | -0.23 | no change | no change | inactive
hsa-miR-320a | 0.64 | 1.57 | no change | no change | inactive
hsa-miR-1299 | -0.55 | 3.5 | no change | no change | inactive
hsa-miR-34b* | -0.73 | 0.85 | no change | no change | inactive
hsa-miR-574-3p | 1.21 | -0.6 | no change | no change | inactive
hsa-miR-582-5p | -1.07 | -0.26 | no change | no change | inactive
hsa-miR-1282 | 0.81 | -0.56 | no change | no change | inactive
hsa-miR-497* | 0.24 | -0.55 | no change | no change | inactive
hsa-miR-581 | 1.12 | -0.18 | no change | no change | inactive
hsa-miR-1224-3p | 0.18 | -1.19 | no change | no change | inactive
hsa-miR-571 | -0.71 | -0.44 | no change | no change | inactive
hsa-miR-340* | 0.07 | -0.2 | no change | no change | inactive
hsa-miR-517* | 1.69 | -0.22 | no change | no change | inactive
hsa-miR-504 | 1.06 | -0.28 | no change | no change | inactive

Already shown: an excerpt of the list.
microRNA | viability robust z-score | caspase robust z-score | viability hit class | caspase hit class | activity call
hsa-miR-616 | -0.94 | 0.24 | no change | no change | inactive
hsa-miR-501-5p | -1.56 | -0.57 | no change | no change | inactive
hsa-miR-647 | -0.4 | -0.23 | no change | no change | inactive
hsa-miR-320a | 0.64 | 1.57 | no change | no change | inactive
hsa-miR-1299 | -0.55 | 3.5 | no change | no change | inactive
hsa-miR-34b* | -0.73 | 0.85 | no change | no change | inactive

The results go on.
microRNA | viability robust z-score | caspase robust z-score | viability hit class | caspase hit class | activity call
hsa-miR-92a-2* | -1.58 | 3.93 | no change | no change | inactive
hsa-miR-153 | -0.66 | 4.27 | no change | no change | inactive
hsa-miR-744* | -2.07 | 3.47 | no change | no change | inactive
hsa-miR-640 | 0.46 | -0.57 | no change | no change | inactive
hsa-miR-768-3p | 0.28 | -0.39 | no change | no change | inactive
hsa-miR-1274a | 0.18 | -0.2 | no change | no change | inactive
hsa-miR-619 | 0.4 | 0.57 | no change | no change | inactive
hsa-miR-296-5p | 0.11 | -0.36 | no change | no change | inactive
hsa-miR-220c | -1.5 | 0.9 | no change | no change | inactive
hsa-miR-620 | -1.13 | 0.18 | no change | no change | inactive
hsa-miR-101* | -1.21 | 0.4 | no change | no change | inactive
hsa-miR-646 | -3.52 | 2.1 | reduced viability | no change | active
hsa-miR-519b-3p | 0.2 | 1.76 | no change | no change | inactive
hsa-miR-664* | 0.11 | 0.78 | no change | no change | inactive
hsa-miR-129* | -0.88 | -0.6 | no change | no change | inactive
hsa-miR-383 | 0.03 | -0.76 | no change | no change | inactive
hsa-let-7f-1* | -0.58 | 0.32 | no change | no change | inactive
hsa-miR-500 | -0.21 | -0.62 | no change | no change | inactive
hsa-let-7i* | 0.04 | 0.5 | no change | no change | inactive
hsa-miR-1279 | 0.55 | -0.54 | no change | no change | inactive
hsa-miR-671-5p | -0.5 | 0 | no change | no change | inactive
hsa-miR-454 | 1.68 | 0.5 | no change | no change | inactive
hsa-let-7a-2* | -0.6 | 2.8 | no change | no change | inactive
hsa-miR-302d | -0.3 | 1.38 | no change | no change | inactive
hsa-miR-509-3-5p | -0.23 | 5.75 | no change | caspase activation | active
